These are yes or no findings as the source states them, for the method shown. In cells and extracts the contact can be indirect. Some entries that bind do so weakly or less than the wild type. For some of these results: Sequences can lack the tags named with a protein.

By UniProt entry, the sequences of proteins in these tests, tags left out. Where a name states a change or a piece, a line headed by the entry shows the natural chain unless it says otherwise. Residues count along the entry.
UniProt P03372: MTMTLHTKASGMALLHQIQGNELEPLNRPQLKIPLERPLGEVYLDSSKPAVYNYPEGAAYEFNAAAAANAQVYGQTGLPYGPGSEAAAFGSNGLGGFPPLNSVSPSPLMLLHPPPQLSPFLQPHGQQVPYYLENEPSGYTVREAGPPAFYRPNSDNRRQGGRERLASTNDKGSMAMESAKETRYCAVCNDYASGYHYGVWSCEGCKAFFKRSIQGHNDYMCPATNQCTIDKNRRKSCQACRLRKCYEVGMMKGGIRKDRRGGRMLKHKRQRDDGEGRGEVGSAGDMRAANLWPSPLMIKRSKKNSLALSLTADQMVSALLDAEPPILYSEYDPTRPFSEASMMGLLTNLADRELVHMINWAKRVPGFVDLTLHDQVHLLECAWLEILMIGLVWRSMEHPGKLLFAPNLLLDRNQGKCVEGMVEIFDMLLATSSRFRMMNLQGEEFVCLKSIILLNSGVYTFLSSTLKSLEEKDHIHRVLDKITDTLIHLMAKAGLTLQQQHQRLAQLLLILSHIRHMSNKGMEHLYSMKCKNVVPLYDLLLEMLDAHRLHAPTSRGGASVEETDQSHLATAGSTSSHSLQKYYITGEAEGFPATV
GST ERα-AF2 (282-595aa): residues 282-595 of P03372

Binding data for four molecules are collected here from article PMC10883278.

In experiment [1] the target is T1, FLAG-tagged MYSM1 (Myb like, SWIRM and MPN domains 1), full length (human) (UniProt Q5VVJ2).
T1 sequence: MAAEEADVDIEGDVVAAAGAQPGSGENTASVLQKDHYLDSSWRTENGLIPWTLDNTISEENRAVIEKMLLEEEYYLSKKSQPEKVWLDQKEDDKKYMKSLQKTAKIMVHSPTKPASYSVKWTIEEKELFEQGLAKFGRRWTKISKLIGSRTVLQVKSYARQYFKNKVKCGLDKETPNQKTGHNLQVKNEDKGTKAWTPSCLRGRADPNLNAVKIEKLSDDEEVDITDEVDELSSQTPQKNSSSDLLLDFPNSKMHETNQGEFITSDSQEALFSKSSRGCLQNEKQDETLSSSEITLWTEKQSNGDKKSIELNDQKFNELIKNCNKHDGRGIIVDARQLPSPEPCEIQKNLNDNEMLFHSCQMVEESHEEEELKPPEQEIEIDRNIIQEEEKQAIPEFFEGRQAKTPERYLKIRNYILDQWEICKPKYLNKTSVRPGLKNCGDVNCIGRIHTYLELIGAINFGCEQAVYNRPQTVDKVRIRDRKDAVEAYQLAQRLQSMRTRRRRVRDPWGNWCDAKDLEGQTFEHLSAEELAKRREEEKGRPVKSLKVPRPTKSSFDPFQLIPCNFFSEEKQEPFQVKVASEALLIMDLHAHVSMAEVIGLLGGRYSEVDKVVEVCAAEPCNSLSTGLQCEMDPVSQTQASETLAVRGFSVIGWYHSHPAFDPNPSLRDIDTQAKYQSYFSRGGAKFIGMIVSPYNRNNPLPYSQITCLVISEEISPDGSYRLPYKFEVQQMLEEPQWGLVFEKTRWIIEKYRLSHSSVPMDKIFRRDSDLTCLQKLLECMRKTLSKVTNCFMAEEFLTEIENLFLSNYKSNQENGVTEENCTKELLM
In words: co-IP; anti-FLAG immunoprecipitation (IgG control) from whole-cell extracts of HEK293 (Fig. 1B, EV1E) or MCF-7 (Fig. 1F) cells co-transfected with FLAG-MYSM1 (wild type or deletion mutants) and ERα; Fig. 1B: estrogen-depleted medium 48 h, then ethanol vehicle or E2 (100 nM) for 12 h; Protein A/G agarose, overnight, three rinses, immunoblot. In general terms: Immunoblotting shows a protein as a band on a membrane.

The target of experiment [2] is T2, endogenous MYSM1 (human (endogenous in MCF-7 and T47D)) (UniProt Q5VVJ2).
T2 sequence: T1 sequence
Nature of the experiment: co-IP; reciprocal co-immunoprecipitation of endogenous MYSM1 and ERα from MCF-7 (Fig. 1C,D) and T47D (Fig. EV1C,D, in response to E2) lysates with the indicated antibodies; immunoblot.

In experiment [3] the target is GST ERα-AF2 (282-595aa) (human) (UniProt P03372). Nature of the experiment: pull-down; GST fusion protein from E. coli on glutathione-Sepharose beads incubated with in vitro transcribed and translated MYSM1; beads rinsed three times; SDS-PAGE and autoradiography or western blot (methods); only the target purified.
Experiment [4] has as its target endogenous ERα (estrogen receptor alpha) (human (endogenous in MCF-7 and T47D)) (UniProt P03372). In words: co-IP; immunoprecipitation with anti-ERα or IgG from MCF-7 cells carrying control shRNA or shMYSM1; immunoblot for p300, CBP, pCAF, MYSM1 and ERα.

For the molecule “ERα (estrogen receptor alpha), ectopically expressed (from UniProt P03372 1-595)”, the binding result in experiment [1] is reported as “binds”.
Turning to “endogenous ERα (estrogen receptor alpha) (from UniProt P03372 1-595)”, the binding result in experiment [2] is on record as “binds”.

B1: in vitro transcribed and translated FLAG-MYSM1 (enzyme, UniProt Q5VVJ2 1-828)
chain: T1 sequence
modifications: 35S label (legend: 35S-MYSM1)
Turning to B1, the binding result in experiment [3] is reported as “binds”.

B2: endogenous MYSM1 (enzyme, UniProt Q5VVJ2 1-828)
chain: T1 sequence
Turning to B2, in experiment [4], the binding result is reported as “binds”.
